Binding data for nine molecules are collected here from article PMC9507130.

No constants are given. Whether binding was seen depends on the method and setting. For some of these results: Binding calls can cover weak binding; strength is not graded here. For some of these results: Binding seen in cells or lysates may run through a third protein.

For test [1], the target named is Vrl1-3HA (over-expressed) (S. cerevisiae). In words: co-IP; yeast spheroplast lysates (0.1% Tween-20, 50 mM HEPES, 1 mM EDTA, 50 mM NaCl, pH 7.4); rabbit anti-GFP or anti-HA, Protein A Sepharose, 4 °C; western blot; Vrl1 over-expressed in some panels; vin1Δ strain for Vps5-3HA with Vrl1-Envy. A general note: In western blotting, separated proteins are transferred to a membrane and probed.

The target of test [2] is Vrl1-Envy (S. cerevisiae). In words: subcellular recruitment assay (live-cell fluorescence microscopy); mScarletI-tagged prey scored as puncta per cell in yeast that express Envy-tagged Vrl1 constructs or chimeras anchored to endosomes by the Ypt35 PX domain (YPE); some experiments in a vin1Δ strain.
Test [3] deals with Vrl1^D373A-Envy (S. cerevisiae). The test is described as above.
Test [4] deals with Vrl1-Envy (S. cerevisiae). In words: co-IP; yeast spheroplast lysates (0.1% Tween-20, 50 mM HEPES, 1 mM EDTA, 50 mM NaCl, pH 7.4); rabbit anti-GFP or anti-HA, Protein A Sepharose, 4 °C; western blot; Vrl1 over-expressed in some panels; vin1Δ strain for Vps5-3HA with Vrl1-Envy.

B1: Vin1 (as tested among the yeast SNX-BARs in Figure 3C) (protein, UniProt P36158 1-585)
chain: MENDKASHASPSIGVNEFVVQGEISIDDSERSVKSVSVSISDDEDSKTDVQDNMATPSTRSKFQTDLAIDNRLLEKDPKYKKLFTEKRRRRRPESCINLMTKGKGTGQKDNINDQIFSLRILPGSDLNSLKDSLWIIKISTQPDVEKTIARAFSDFYWLYHQLQNNHWGKTIPPPTRSNILVEKDEFAINHLFMIRNNEKYDPIFNFKPEYIISLQLMAMIKHIFNDKVLRLDSNFIDFISWDDDLPESLQIVVDDSTFTGDKILMTSSQFRELKEFHKQSKKVESITNSHASLIPVTELTEIYISPTKLFSRKDYQRLFQPQSTDNTFNNNDPLIQEWIPKSKTLFTSLSFGSSAPTYQEASTEIQACHDWVSISKEQWKQLLYHVLQYIVDEAVKVNSVINEFTECLKQISLDEVIRANSELFLKFSKLNESFLKKFKGASRQDILKLIILFDENVRFCESFESILNQRLKLGKILSIIEVDLDKKKNFLDKLSPGNNNSNNEDLKIRTAEDEYRIVLKRYNRVKQSWEKIMEDILNERKEFEKREAAEVNSCLKSIRDLNMDEKKHYLQLWQDFVPDEHISQ
For the molecule B1, the binding result in test [1] is given as “binds”.

B2: Vin1-mScarletI (protein, UniProt P36158 1-585)
chain: MENDKASHASPSIGVNEFVVQGEISIDDSERSVKSVSVSISDDEDSKTDVQDNMATPSTRSKFQTDLAIDNRLLEKDPKYKKLFTEKRRRRRPESCINLMTKGKGTGQKDNINDQIFSLRILPGSDLNSLKDSLWIIKISTQPDVEKTIARAFSDFYWLYHQLQNNHWGKTIPPPTRSNILVEKDEFAINHLFMIRNNEKYDPIFNFKPEYIISLQLMAMIKHIFNDKVLRLDSNFIDFISWDDDLPESLQIVVDDSTFTGDKILMTSSQFRELKEFHKQSKKVESITNSHASLIPVTELTEIYISPTKLFSRKDYQRLFQPQSTDNTFNNNDPLIQEWIPKSKTLFTSLSFGSSAPTYQEASTEIQACHDWVSISKEQWKQLLYHVLQYIVDEAVKVNSVINEFTECLKQISLDEVIRANSELFLKFSKLNESFLKKFKGASRQDILKLIILFDENVRFCESFESILNQRLKLGKILSIIEVDLDKKKNFLDKLSPGNNNSNNEDLKIRTAEDEYRIVLKRYNRVKQSWEKIMEDILNERKEFEKREAAEVNSCLKSIRDLNMDEKKHYLQLWQDFVPDEHISQ
Regarding B2, the binding entry in test [2] and in test [3] was “binds” throughout.

B3: Vps17 (protein, UniProt P32913 1-551)
chain: MTSAVPYDPYDDLDNNPFAEPQEEDSEPAATTTDGSSSMSEERVGTEQTAASVQDNGTANNIQNGLGEEGNATRSKTSNEHNENQQPSQPSERVILPERSDEKKKYTLLAKVTGLERFGSATGKKENPTIIFDCSTNLPTFRKQQYKNVKKSYEEFHQLFKYLNVAIQESFVPTLPSAYTTFGINSEEDRMKVTRNFQLWFNRLSQDPLIIRNEEVAFFIESDFNTYTPINKSKSLASGLKRKTLKQLAPPYDEITELAEFRPLVKSIYVVSQSLQEKLLRVSRNRKMMVQEENAFGQDFVNLDEHNKLYRRYGKILTAVGDIDSIIATMDMATLYDGLEWIVRDAYAVKEALTNRHFIMRNLVQAQQNSKAKQEQARRFRSRRDINPMKIDEALRQLKAAAKNEQVLTLKLQRITSNMIIERKQWISWYEEWIRSSIKEFTLRKIEYERKKLTLLERVRSDIRKADENGGLSRLGRHAVSNNNSDTSQTLKGDSWTGESNRKSQIPINKIAHTEFDDELFTEDDGYNSQDSDTTSLNARHAASLLGMSTK
Regarding B3, the binding entry in test [1] was “no binding”.

B4: Snx4 (protein, UniProt P47057 1-423)
chain: MTDKGKNDLTSKAKDKARGNPEKPPYWFEIIVSDPQKRTGDPGSSSGYVSYQISTKTNNTSFYDNRGDPESIIVVHRRYSDLLLLHDILLNRFPTCIIPPLPDKKVFQYIAGDRFSQRFTQKRCHSLQNFLRRVSLHPDLSQSKVFKTFLVSKDWESHRKVLQDSLQPNKDEVTDAFMNAFKTVHKQNEEFTEIREKSDKLDRTVTKIDKLFHKVVKKNDSMSEDYTKLGSNLQELQELVTGENEELAAKLKIFNEGVTQLSYGLQDLTKYLDYEYIVDLKDLEHYIDSMRQLIKLKDQKQIDYEELSDYLTRSIKEKNNLISGYGGSNFFANKLEELAGINQEASRREKINKLEGKITSLTGELENAKKVADGFEQECLKEIDHFESVKTAEIKKSLGSLADHHIEFYERILEAWEKVDDSL
B4: the binding result in test [1] was “no binding”.

B5: Snx41 (protein, UniProt Q04053 1-625)
chain: MDYNIFEAVHEQQSSTSDMDLSEEDNNPFVGTHHLYASGIGTTIGEARPENENSPPSSSSLPSSPAHSSSAGSSRASTSSSTSSHAVVEADAETEPFVSLSMSTTATISKFTPHDMNGTQQIQIIDAGDFKDPWGKHAIGYVILYENNKIIRRYSEFHSLRQSLTRLLPTIIIPPIPSKHSLLKYIWSPINAANDSKIISTRKKMLNSFLSNCLNIQEISNDIVFQKFLNPEFNWKDVLSSSPIIILPLNNLLAPPLSPTKPSPLHSILPIPSNSSLRNYNSIWQQHITVKSHNEISNLPTEILQNESQFTHIENLFQNYKRIITHLLKNIRSNKSHFHSLSTYFAELGAYYNAFSLENDITMPNSLRESENNSNNPMMEIISHIEKTGHSFDVIYISSEILIEKYTSILEDPINELLQFLNESFKVLNFKKLKFLQFKILERLIIEKETKLSSLTEIENQLQKINESLTRSTILTDENYKDTKAADLTFVKKDVRSLSKSSSNSSSSGHQNEIHIGASKLNYKTSTPTMNLNKLEIKQLTEQERSKQIKQLNQDLSKLKDCLSICISDMLEINNSSYNSLMHTYNHINLTIGKILKLFAASFKAWIKECLKNWKLAKLQIDEAL
On to B5, for which the binding entry in test [1] is on record as “no binding”.

B6: Atg20 (protein, UniProt Q07528 1-640)
chain: MSDLNDVQENAKLNSETRNTGKAEPPHGTTEYVAEAEISKNGVGSPKKSPKKGKVGKGDNNKVETELVHTALLEKDNPFMEEGPTGFTKSALLEIPGMRSHNLKNPNEDYEDDSEGLLPLNQESNAETCRTSLSGSINSMNGETSASEEPSVSNRKKSARIHILEAKRVSEGQGRAYIAYVIQFENSTVQRRYSDFESLRSILIRLFPMTLIPPIPEKQSIKNYGKSITGSSSKYLLPSEGSGSVDLSLSVIHASVNNSDEKLIRHRIRMLTEFLNKLLTNEEITKTSIITDFLDPNNHNWHEFVNSSSTFSSLPKSILQCNPLDPTNTTRIHAMLPIPGSSSQLLLNKESNDKKMDKERSKSFTNIEQDYKQYENLLDNGIYKYNRRTTKTYHDLKSDYNEIGEVFAQFAHEQAQVGELAEQLSYLSNAFSGSSISLEKLVGRLYYNINEPLNESVHMATSARELIKYRKLKYLQNEMIKKSLNSKRAQLEKLEAQNNEYKDVDKIIDNEMSKSHTINLERPNNNTGSGGKSYGGKLFNGFNKLASMVKDSVKYQETDPHTASINLKKEIEQLSESLEVTENDLEVISKVIKNDQLPKFSKEREVDLSEILKHYSRYMRNYARQNLEIWKEVKRHQDFA
As to B6, in test [1], the binding entry is reported as “no binding”.

B7: Mvp1 (protein, UniProt P40959 1-511)
chain: MDNYEGSDPWNTSSNAWTKDDDHVVSTTNSEPSLNGISGEFNTLNFSTPLDTNEEDTGFLPTNDVLEESIWDDSRNPLGATGMSQTPNIAANETVIDKNDARDQNIEESEADLLDWTNNVRKTYRPLDADIIIIEEIPEREGLLFKHANYLVKHLIALPSTSPSEERTVVRRYSDFLWLREILLKRYPFRMIPELPPKRIGSQNADQLFLKKRRIGLSRFINLVMKHPKLSNDDLVLTFLTVRTDLTSWRKQATYDTSNEFADKKISQEFMKMWKKEFAEQWNQAASCIDTSMELWYRITLLLERHEKRIMQMVHERNFFETLVDNFSEVTPKLYPVQQNDTILDINNNLSIIKKHLETTSSICKQETEEISGTLSPKFKIFTDILLSLRSLFERYKIMAANNVVELQRHVELNKEKLESMKGKPDVSGAEYDRIKKIIQKDRRSIIEQSNRAWLIRQCILEEFTIFQETQFLITRAFQDWAKLNSNHAGLKLNEWEKLVTSIMDMPISRE
Regarding B7, the binding entry in test [1] is on record as “no binding”.

B8: Vps5 (as tested among the yeast SNX-BARs in Figure 3C) (protein, UniProt Q92331 1-675)
chain: MDYEDNLEAPVWDELNHEGDKTQSLVSNSIESIGQISTNEERKDNELLETTASFADKIDLDSAPEWKDPGLSVAGNPQLEEHDNSKADDLINSLAPEQDPIADLKNSTTQFIATRESGGALFTGNANSPLVFDDTIYDANTSPNTSKSISGRRSGKPRILFDSARAQRNSKRNHSLKAKRTTASDDTIKTPFTDPLKKAEKENEFVEEPLDDRNERRENNEGKFTASVEKNILEQVDRPLYNLPQTGANISSPAEVEENSEKFGKTKIGSKVPPTEKAVAFKVEVKDPVKVGELTSIHVEYTVISESSLLELKYAQVSRRYRDFRWLYRQLQNNHWGKVIPPPPEKQSVGSFKENFIENRRFQMESMLKKICQDPVLQKDKDFLLFLTSDDFSSESKKRAFLTGSGAINDSNDLSEVRISEIQLLGAEDAAEVLKNGGIDAESHKGFMSISFSSLPKYNEADEFFIEKKQKIDELEDNLKKLSKSLEMVDTSRNTLAASTEEFSSMVETLASLNVSEPNSELLNNFADVHKSIKSSLERSSLQETLTMGVMLDDYIRSLASVKAIFNQRSKLGYFLVVIENDMNKKHSQLGKLGQNIHSEKFREMRKEFQTLERRYNLTKKQWQAVGDKIKDEFQGFSTDKIREFRNGMEISLEAAIESQKECIELWETFYQTNL
As to B8, the binding entry in test [1] was “no binding”.

B9: Vps5-3HA (protein, UniProt Q92331 1-675)
chain: MDYEDNLEAPVWDELNHEGDKTQSLVSNSIESIGQISTNEERKDNELLETTASFADKIDLDSAPEWKDPGLSVAGNPQLEEHDNSKADDLINSLAPEQDPIADLKNSTTQFIATRESGGALFTGNANSPLVFDDTIYDANTSPNTSKSISGRRSGKPRILFDSARAQRNSKRNHSLKAKRTTASDDTIKTPFTDPLKKAEKENEFVEEPLDDRNERRENNEGKFTASVEKNILEQVDRPLYNLPQTGANISSPAEVEENSEKFGKTKIGSKVPPTEKAVAFKVEVKDPVKVGELTSIHVEYTVISESSLLELKYAQVSRRYRDFRWLYRQLQNNHWGKVIPPPPEKQSVGSFKENFIENRRFQMESMLKKICQDPVLQKDKDFLLFLTSDDFSSESKKRAFLTGSGAINDSNDLSEVRISEIQLLGAEDAAEVLKNGGIDAESHKGFMSISFSSLPKYNEADEFFIEKKQKIDELEDNLKKLSKSLEMVDTSRNTLAASTEEFSSMVETLASLNVSEPNSELLNNFADVHKSIKSSLERSSLQETLTMGVMLDDYIRSLASVKAIFNQRSKLGYFLVVIENDMNKKHSQLGKLGQNIHSEKFREMRKEFQTLERRYNLTKKQWQAVGDKIKDEFQGFSTDKIREFRNGMEISLEAAIESQKECIELWETFYQTNL
For B9, in test [4], the binding result is on record as “no binding”.
